Where a name gives a salt, the structure may show the parent alone. The list shows a part of the results. Hit calls seldom repeat between salt and free forms of one compound.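 In K562 cells expressing nanoluciferase-fused kinases, luminescence was recorded at 4 h intervals between 2 and 18 h, normalized as percent of control with DMSO at 100% and a positive control at 0%. A significant (2 sigma) signal drop marks a time point as decreased. The authors' rule for a hit is not shown and takes in more than the number of time points.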
Assays:
Assay in all cases: kinase-Nluc reporter destabilization hit call (1 = scored as downregulated) (binary); higher = compound decreases kinase abundance
Conditions in all cases: K562, 2-18 h
[1] = target: PDPK1 (UniProt O15530)
[2] = target: PIK4CA (UniProt P42356)
[3] = target: PIK4CB (UniProt Q9UBF8)
[4] = target: PLK1 (UniProt P53350)
[5] = target: PRKAA1 (UniProt Q13131)
[6] = target: PRKCA (UniProt P17252)
[7] = target: PTK2 (UniProt Q05397)
[8] = target: PTK2B (UniProt Q14289)
[9] = target: RAF1 (UniProt P04049)
[10] = target: RAF1_S257L (clone: RAF1_mut) (UniProt P04049)
[11] = target: RET (UniProt P07949)
[12] = target: RET_M918T (clone: RET_mut) (UniProt P07949)
[13] = target: RIOK1 (UniProt Q9BRS2)
[14] = target: RIPK1 (UniProt Q13546)
[15] = target: RIPK2 (UniProt O43353)
[16] = target: ROR2 (UniProt Q01974)
[17] = target: RPS6KA1 (UniProt Q15418)
[18] = target: SPHK1 (UniProt Q9NYA1)
[19] = target: SRC (UniProt P12931)
[20] = target: STK24 (UniProt Q9Y6E0)

The chains behind the UniProt entries cited, without tags or fusion partners. Where a name states a change or a piece, a line headed by the entry shows the natural chain unless it says otherwise.
UniProt O15530: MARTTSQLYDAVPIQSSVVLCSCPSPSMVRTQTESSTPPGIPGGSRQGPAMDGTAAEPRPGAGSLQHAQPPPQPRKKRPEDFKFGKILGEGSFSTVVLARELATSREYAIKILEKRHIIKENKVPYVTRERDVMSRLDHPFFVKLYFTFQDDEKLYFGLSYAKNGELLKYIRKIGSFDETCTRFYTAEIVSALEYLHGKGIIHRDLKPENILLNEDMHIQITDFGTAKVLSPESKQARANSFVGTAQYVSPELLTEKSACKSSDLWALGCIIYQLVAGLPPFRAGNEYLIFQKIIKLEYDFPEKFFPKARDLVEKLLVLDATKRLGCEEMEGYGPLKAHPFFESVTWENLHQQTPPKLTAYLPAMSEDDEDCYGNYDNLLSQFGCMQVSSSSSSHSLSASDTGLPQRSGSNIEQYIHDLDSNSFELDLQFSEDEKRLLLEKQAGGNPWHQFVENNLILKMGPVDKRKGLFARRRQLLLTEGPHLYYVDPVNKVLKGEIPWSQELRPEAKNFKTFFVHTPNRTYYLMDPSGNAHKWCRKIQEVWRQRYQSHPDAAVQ
UniProt P53350, whole entry: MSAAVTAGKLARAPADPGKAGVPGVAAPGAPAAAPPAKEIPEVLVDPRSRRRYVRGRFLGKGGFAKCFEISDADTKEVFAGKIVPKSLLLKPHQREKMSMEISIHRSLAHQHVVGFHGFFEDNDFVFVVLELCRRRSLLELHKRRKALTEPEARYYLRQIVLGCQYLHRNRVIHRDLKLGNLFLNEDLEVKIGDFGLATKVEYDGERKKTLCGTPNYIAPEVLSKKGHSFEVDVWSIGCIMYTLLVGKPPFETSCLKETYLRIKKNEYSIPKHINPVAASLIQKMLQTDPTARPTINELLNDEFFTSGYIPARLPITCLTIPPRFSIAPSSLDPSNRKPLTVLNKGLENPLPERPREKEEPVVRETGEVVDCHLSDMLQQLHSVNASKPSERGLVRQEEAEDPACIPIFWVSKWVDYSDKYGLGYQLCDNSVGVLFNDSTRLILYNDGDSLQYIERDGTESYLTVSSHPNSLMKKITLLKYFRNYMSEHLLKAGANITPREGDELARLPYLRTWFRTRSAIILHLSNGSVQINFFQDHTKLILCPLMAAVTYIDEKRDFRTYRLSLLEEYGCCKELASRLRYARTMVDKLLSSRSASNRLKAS
UniProt Q13131: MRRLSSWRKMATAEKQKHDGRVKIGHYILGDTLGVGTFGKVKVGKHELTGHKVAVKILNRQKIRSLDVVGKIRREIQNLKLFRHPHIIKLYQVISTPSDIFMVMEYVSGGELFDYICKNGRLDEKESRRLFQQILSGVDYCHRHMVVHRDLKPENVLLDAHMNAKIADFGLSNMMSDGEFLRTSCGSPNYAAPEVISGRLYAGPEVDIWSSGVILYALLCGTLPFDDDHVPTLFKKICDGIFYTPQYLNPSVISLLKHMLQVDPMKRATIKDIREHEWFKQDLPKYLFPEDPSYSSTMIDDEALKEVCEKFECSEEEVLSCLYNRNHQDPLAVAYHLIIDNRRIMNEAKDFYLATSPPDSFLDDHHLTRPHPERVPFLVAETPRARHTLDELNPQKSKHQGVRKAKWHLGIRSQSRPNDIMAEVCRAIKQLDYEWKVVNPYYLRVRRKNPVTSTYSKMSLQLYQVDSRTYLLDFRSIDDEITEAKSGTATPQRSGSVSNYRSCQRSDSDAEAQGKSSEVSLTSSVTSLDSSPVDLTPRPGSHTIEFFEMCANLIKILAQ
UniProt Q05397, whole entry, looked up: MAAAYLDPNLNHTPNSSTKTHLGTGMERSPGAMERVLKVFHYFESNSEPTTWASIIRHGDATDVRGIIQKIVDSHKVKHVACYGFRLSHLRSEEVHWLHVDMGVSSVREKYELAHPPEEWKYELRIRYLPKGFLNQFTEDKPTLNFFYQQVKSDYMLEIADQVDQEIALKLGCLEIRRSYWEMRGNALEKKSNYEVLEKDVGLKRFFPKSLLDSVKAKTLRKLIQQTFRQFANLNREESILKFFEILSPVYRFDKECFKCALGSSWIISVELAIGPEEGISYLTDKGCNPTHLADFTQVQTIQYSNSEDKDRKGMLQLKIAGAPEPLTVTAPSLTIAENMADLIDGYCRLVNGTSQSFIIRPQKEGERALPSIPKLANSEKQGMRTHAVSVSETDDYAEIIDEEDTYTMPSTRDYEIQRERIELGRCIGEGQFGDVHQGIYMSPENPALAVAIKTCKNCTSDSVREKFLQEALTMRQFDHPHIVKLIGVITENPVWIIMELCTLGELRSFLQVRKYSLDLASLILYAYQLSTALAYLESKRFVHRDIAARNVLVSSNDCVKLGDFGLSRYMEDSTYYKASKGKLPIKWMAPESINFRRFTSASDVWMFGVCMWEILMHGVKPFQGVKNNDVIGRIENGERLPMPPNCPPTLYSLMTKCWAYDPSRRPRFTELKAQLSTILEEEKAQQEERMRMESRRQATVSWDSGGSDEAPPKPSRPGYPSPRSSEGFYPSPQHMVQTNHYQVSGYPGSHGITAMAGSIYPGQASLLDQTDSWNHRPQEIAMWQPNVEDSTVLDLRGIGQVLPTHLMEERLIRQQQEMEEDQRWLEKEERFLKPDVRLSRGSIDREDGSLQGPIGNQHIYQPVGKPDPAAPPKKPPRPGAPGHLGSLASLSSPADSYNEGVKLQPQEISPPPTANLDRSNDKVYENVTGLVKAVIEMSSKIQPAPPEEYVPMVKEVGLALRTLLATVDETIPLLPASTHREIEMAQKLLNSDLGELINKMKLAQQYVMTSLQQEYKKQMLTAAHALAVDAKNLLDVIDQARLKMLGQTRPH
UniProt Q9BRS2: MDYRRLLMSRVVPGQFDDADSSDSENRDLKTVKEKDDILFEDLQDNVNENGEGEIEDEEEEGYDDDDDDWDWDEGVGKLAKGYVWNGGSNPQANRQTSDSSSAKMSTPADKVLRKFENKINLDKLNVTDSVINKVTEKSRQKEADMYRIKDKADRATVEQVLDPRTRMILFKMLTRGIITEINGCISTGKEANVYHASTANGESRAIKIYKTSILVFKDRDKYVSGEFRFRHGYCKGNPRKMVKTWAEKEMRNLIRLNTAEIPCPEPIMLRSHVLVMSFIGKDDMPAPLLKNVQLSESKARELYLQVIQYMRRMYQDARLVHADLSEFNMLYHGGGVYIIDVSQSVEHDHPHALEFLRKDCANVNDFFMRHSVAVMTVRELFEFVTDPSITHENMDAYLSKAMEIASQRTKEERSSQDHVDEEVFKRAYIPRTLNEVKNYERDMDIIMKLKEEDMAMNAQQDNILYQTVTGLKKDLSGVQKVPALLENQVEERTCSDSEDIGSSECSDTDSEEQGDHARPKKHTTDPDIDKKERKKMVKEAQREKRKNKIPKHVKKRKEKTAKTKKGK
UniProt Q01974, whole entry: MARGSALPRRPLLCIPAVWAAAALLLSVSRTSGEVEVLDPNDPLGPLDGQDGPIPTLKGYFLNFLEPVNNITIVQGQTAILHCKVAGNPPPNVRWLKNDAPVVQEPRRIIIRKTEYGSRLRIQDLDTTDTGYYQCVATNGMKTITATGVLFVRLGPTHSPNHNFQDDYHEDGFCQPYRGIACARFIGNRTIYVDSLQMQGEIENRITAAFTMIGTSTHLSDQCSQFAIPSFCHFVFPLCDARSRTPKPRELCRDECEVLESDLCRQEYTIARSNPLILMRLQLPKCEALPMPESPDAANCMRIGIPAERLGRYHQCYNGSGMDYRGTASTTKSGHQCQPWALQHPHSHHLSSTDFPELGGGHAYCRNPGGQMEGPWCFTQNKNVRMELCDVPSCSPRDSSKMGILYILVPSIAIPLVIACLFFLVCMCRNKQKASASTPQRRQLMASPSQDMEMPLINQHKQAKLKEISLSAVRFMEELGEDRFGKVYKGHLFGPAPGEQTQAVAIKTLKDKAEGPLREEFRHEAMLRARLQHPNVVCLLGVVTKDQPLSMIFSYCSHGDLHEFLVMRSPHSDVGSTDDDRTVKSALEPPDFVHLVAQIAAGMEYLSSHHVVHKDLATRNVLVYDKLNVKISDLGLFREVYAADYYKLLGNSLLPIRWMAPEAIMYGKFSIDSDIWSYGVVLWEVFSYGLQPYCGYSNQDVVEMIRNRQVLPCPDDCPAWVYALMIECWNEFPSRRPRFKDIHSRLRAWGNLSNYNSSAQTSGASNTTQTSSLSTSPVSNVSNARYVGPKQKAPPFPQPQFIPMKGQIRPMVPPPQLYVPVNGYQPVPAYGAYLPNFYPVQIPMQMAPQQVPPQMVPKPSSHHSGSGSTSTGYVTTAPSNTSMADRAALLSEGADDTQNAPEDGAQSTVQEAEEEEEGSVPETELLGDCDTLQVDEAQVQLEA
UniProt Q15418, whole entry: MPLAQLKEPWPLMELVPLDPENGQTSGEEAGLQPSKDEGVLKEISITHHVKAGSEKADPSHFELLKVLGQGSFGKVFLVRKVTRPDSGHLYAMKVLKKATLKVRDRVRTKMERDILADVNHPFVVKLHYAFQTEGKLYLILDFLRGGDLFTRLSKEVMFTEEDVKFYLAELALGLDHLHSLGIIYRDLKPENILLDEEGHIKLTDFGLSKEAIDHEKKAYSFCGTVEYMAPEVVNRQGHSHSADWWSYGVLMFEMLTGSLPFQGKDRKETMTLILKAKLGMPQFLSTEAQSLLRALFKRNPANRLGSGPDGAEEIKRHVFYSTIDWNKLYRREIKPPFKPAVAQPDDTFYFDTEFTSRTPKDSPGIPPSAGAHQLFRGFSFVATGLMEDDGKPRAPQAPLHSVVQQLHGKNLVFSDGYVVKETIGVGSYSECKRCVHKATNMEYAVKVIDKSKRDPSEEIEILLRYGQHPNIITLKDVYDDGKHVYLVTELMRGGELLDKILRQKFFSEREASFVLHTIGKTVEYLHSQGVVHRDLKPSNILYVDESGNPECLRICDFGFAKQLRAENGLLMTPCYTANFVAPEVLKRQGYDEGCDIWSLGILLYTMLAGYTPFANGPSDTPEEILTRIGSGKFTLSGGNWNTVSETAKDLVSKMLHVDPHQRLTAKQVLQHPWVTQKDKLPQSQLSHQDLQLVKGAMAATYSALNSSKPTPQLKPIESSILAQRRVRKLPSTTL
UniProt Q9NYA1, whole entry: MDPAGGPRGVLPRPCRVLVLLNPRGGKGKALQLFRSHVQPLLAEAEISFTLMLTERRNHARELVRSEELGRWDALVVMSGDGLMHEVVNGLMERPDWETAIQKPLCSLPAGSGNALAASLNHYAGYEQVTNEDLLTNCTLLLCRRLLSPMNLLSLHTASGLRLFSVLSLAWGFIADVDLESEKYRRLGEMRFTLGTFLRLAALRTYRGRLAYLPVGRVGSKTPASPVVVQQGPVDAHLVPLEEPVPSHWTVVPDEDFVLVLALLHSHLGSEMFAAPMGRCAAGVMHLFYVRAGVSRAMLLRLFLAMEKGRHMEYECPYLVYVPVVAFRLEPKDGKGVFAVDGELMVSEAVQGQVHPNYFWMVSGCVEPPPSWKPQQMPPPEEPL
UniProt Q9Y6E0: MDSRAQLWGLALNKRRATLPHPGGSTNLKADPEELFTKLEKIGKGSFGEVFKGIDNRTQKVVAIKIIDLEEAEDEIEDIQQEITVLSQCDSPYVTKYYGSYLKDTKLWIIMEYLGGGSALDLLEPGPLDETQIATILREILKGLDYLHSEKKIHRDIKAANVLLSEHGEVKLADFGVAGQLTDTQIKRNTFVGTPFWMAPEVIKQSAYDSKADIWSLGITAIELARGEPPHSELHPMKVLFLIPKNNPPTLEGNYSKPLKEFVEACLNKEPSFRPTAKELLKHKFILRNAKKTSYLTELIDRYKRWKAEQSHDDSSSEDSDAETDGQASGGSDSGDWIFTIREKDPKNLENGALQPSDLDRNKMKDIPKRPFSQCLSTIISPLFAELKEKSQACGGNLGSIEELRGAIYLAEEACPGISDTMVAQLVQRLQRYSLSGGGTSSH

Measured: kinase-Nluc reporter destabilization hit call

Cc1cnc(Nc2ccc(OCCN3CCCC3)cc2)nc1Nc1cccc(S(=O)(=O)NC(C)(C)C)c1 [Fedratinib (hydrochloride hydrate)]
inactive: [1]; 2.5 µM 0 | [2]; 2.5 µM 0 | [3]; 2.5 µM 0 | [4]; 2.5 µM 0 | [5]; 2.5 µM 0 | [6]; 2.5 µM 0 | [7]; 2.5 µM 0 | [8]; 2.5 µM 0 | [9]; 2.5 µM 0 | [10]; 2.5 µM 0 | [11]; 2.5 µM 0 | [12]; 2.5 µM 0 | [13]; 2.5 µM 0 | [14]; 2.5 µM 0 | [15]; 2.5 µM 0 | [16]; 2.5 µM 0 | [17]; 2.5 µM 0 | [18]; 2.5 µM 0 | [19]; 2.5 µM 0 | [20]; 2.5 µM 0

CCOc1cc2ncc(C#N)c(Nc3ccc(F)c(Cl)c3)c2cc1NC(=O)/C=C/CN(C)C [Pelitinib]
inactive: [1]; 2.5 µM 0 | [2]; 2.5 µM 0 | [3]; 2.5 µM 0 | [4]; 2.5 µM 0 | [5]; 2.5 µM 0 | [6]; 2.5 µM 0 | [7]; 2.5 µM 0 | [8]; 2.5 µM 0 | [9]; 2.5 µM 0 | [10]; 2.5 µM 0 | [11]; 2.5 µM 0 | [12]; 2.5 µM 0 | [13]; 2.5 µM 0 | [14]; 2.5 µM 0 | [15]; 2.5 µM 0 | [16]; 2.5 µM 0 | [17]; 2.5 µM 0 | [18]; 2.5 µM 0 | [19]; 2.5 µM 0 | [20]; 2.5 µM 0

C[C@H]1Oc2cc(cnc2N)-c2c(nn(C)c2C#N)CN(C)C(=O)c2ccc(F)cc21 [Lorlatinib]
inactive: [1]; 10 µM 0 | [2]; 10 µM 0 | [3]; 10 µM 0 | [4]; 10 µM 0 | [5]; 10 µM 0 | [6]; 10 µM 0 | [7]; 10 µM 0 | [8]; 10 µM 0 | [9]; 10 µM 0 | [10]; 10 µM 0 | [11]; 10 µM 0 | [12]; 10 µM 0 | [13]; 10 µM 0 | [14]; 10 µM 0 | [15]; 10 µM 0 | [16]; 10 µM 0 | [17]; 10 µM 0 | [18]; 10 µM 0 | [19]; 10 µM 0 | [20]; 10 µM 0

Cc1cnc(Nc2ccc(OCCN3CCCC3)cc2)nc1Nc1cccc(S(=O)(=O)NC(C)(C)C)c1 [Fedratinib]
inactive: [1]; 2.5 µM 0 | [2]; 2.5 µM 0 | [3]; 2.5 µM 0 | [4]; 2.5 µM 0 | [5]; 2.5 µM 0 | [6]; 2.5 µM 0 | [7]; 2.5 µM 0 | [8]; 2.5 µM 0 | [9]; 2.5 µM 0 | [10]; 2.5 µM 0 | [11]; 2.5 µM 0 | [12]; 2.5 µM 0 | [13]; 2.5 µM 0 | [14]; 2.5 µM 0 | [15]; 2.5 µM 0 | [16]; 2.5 µM 0 | [17]; 2.5 µM 0 | [18]; 2.5 µM 0 | [19]; 2.5 µM 0 | [20]; 2.5 µM 0

C=CC(=O)Nc1cc2c(Nc3ccc(F)c(Cl)c3)ncnc2cc1OCCCN1CCOCC1 [Canertinib]
inactive: [1]; 10 µM 0 | [2]; 10 µM 0 | [3]; 10 µM 0 | [4]; 10 µM 0 | [5]; 10 µM 0 | [6]; 10 µM 0 | [7]; 10 µM 0 | [8]; 10 µM 0 | [9]; 10 µM 0 | [10]; 10 µM 0 | [11]; 10 µM 0 | [12]; 10 µM 0 | [13]; 10 µM 0 | [14]; 10 µM 0 | [15]; 10 µM 0 | [16]; 10 µM 0 | [17]; 10 µM 0 | [18]; 10 µM 0 | [19]; 10 µM 0 | [20]; 10 µM 0

C=CC(=O)N(C)CCOc1c(N)ncnc1-c1cc(F)cc(NC(=O)c2ccc(C3CC3)cc2F)c1C [Remibrutinib]
inactive: [1]; 10 µM 0 | [2]; 10 µM 0 | [3]; 10 µM 0 | [4]; 10 µM 0 | [5]; 10 µM 0 | [6]; 10 µM 0 | [7]; 10 µM 0 | [8]; 10 µM 0 | [9]; 10 µM 0 | [10]; 10 µM 0 | [11]; 10 µM 0 | [12]; 10 µM 0 | [13]; 10 µM 0 | [14]; 10 µM 0 | [15]; 10 µM 0 | [16]; 10 µM 0 | [17]; 10 µM 0 | [18]; 10 µM 0 | [19]; 10 µM 0 | [20]; 10 µM 0

Cc1cc2c(F)c(Oc3ncnn4cc(OC[C@@H](C)O)c(C)c34)ccc2[nH]1 [Brivanib]
inactive: [1]; 10 µM 0 | [2]; 10 µM 0 | [3]; 10 µM 0 | [4]; 10 µM 0 | [5]; 10 µM 0 | [6]; 10 µM 0 | [7]; 10 µM 0 | [8]; 10 µM 0 | [9]; 10 µM 0 | [10]; 10 µM 0 | [11]; 10 µM 0 | [12]; 10 µM 0 | [13]; 10 µM 0 | [14]; 10 µM 0 | [15]; 10 µM 0 | [16]; 10 µM 0 | [17]; 10 µM 0 | [18]; 10 µM 0 | [19]; 10 µM 0 | [20]; 10 µM 0

NCCNc1ncc(C(N)=O)c(Nc2cccc(C(F)(F)F)c2)n1 [Syk Inhibitor II]
inactive: [1]; 10 µM 0 | [2]; 10 µM 0 | [3]; 10 µM 0 | [4]; 10 µM 0 | [5]; 10 µM 0 | [6]; 10 µM 0 | [7]; 10 µM 0 | [8]; 10 µM 0 | [9]; 10 µM 0 | [10]; 10 µM 0 | [11]; 10 µM 0 | [12]; 10 µM 0 | [13]; 10 µM 0 | [14]; 10 µM 0 | [15]; 10 µM 0 | [16]; 10 µM 0 | [17]; 10 µM 0 | [18]; 10 µM 0 | [19]; 10 µM 0 | [20]; 10 µM 0

C=CC(=O)N1CCC([C@@H]2CCNc3c(C(N)=O)c(-c4ccc(Oc5ccccc5)cc4)nn32)CC1 [Zanubrutinib]
inactive: [1]; 10 µM 0 | [2]; 10 µM 0 | [3]; 10 µM 0 | [4]; 10 µM 0 | [5]; 10 µM 0 | [6]; 10 µM 0 | [7]; 10 µM 0 | [8]; 10 µM 0 | [9]; 10 µM 0 | [10]; 10 µM 0 | [11]; 10 µM 0 | [12]; 10 µM 0 | [13]; 10 µM 0 | [14]; 10 µM 0 | [15]; 10 µM 0 | [16]; 10 µM 0 | [17]; 10 µM 0 | [18]; 10 µM 0 | [19]; 10 µM 0 | [20]; 10 µM 0

— the supplement of paper PMC12823440, “Inhibitors supercharge kinase turnover through native proteolytic circuits” (Nature, 2025)
